From a melanoma drug combination screen (doi:10.1371/journal.pone.0140310); values rounded.

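Human melanoma cells were exposed to a pair of drugs for 72 h in 1,536-well plates and read by automated microscopy after fixing and staining. The read-out is cell count (nuclei) in % of the DMSO control; lower values mean stronger growth inhibition or killing. Concentrations were fixed for each drug; these are the higher of two levels. The file gives one value for each pair and line, without errors, so small differences may be noise.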 This is part of the screen, not chosen by result.

Compounds and concentrations:
PF-04217903 (5 µM): OCCn1cc(-c2cnc3nnn(Cc4ccc5ncccc5c4)c3n2)cn1
nilutamide (5 µM): CC1(C)NC(=O)N(c2ccc([N+](=O)[O-])c(C(F)(F)F)c2)C1=O
NVP-TAE684 (0.4 µM): COc1cc(N2CCC(N3CCN(C)CC3)CC2)ccc1Nc1ncc(Cl)c(Nc2ccccc2S(=O)(=O)C(C)C)n1
enzastaurin (4 µM): Cn1cc(C2=C(c3cn(C4CCN(Cc5ccccn5)CC4)c4ccccc34)C(=O)NC2=O)c2ccccc21
XAV939 (10 µM): Oc1nc(-c2ccc(C(F)(F)F)cc2)nc2c1CSCC2
OSU-03012 (5 µM): NCC(=O)Nc1ccc(-n2nc(C(F)(F)F)cc2-c2ccc3c(ccc4ccccc43)c2)cc1
sorafenib (2 µM): CNC(=O)c1cc(Oc2ccc(NC(=O)Nc3ccc(Cl)c(C(F)(F)F)c3)cc2)ccn1
vatalanib (10 µM): Clc1ccc(Nc2nnc(Cc3ccncc3)c3ccccc23)cc1

| Drugs | COLO 800 | COLO 792 | WM451Lu | COLO 829 | C32 |
|---|---|---|---|---|---|
| XAV939 + PF-04217903 | 125 | 79.0 | 94.1 | 105 | 106 |
| PF-04217903 + NVP-TAE684 | 73.3 | 83.5 | 73.7 | 82.0 | 79.5 |
| NVP-TAE684 + OSU-03012 | 32.1 | 62.3 | 75.0 | 78.5 | 84.5 |
| XAV939 + enzastaurin | 103 | 70.4 | 94.9 | 77.1 | 92.7 |
| sorafenib + vatalanib | 49.6 | 68.8 | 89.0 | 86.0 | 81.1 |
| PF-04217903 + nilutamide | 81.8 | 60.2 | 84.4 | 87.0 | 88.8 |
| NVP-TAE684 + vatalanib | 59.9 | 71.8 | 61.6 | 64.7 | 72.0 |
| vatalanib + OSU-03012 | 21.5 | 44.7 | 43.5 | 29.9 | 76.4 |
| OSU-03012 + nilutamide | 55.6 | 68.2 | 96.7 | 63.7 | 99.5 |
| sorafenib + NVP-TAE684 | 50.1 | 135 | 91.4 | 77.9 | 77.5 |
| vatalanib + nilutamide | 48.2 | 51.6 | 95.1 | 66.4 | 86.1 |
| nilutamide + XAV939 | 62.7 | 74.1 | 99.2 | 112 | 98.8 |
| enzastaurin + vatalanib | 71.5 | 63.7 | 81.0 | 42.5 | 104 |
| XAV939 + sorafenib | 73.2 | 108 | 114 | 112 | 98.7 |
| NVP-TAE684 + nilutamide | 90.2 | 89.6 | 81.0 | 107 | 91.9 |
| PF-04217903 + enzastaurin | 145 | 103 | 105 | 123 | 90.2 |
| OSU-03012 + sorafenib | 51.4 | 68.2 | 106 | 76.9 | 92.0 |
| NVP-TAE684 + enzastaurin | 42.9 | 76.1 | 76.2 | 105 | 64.7 |
| enzastaurin + OSU-03012 | 46.6 | 51.2 | 52.0 | 65.2 | 73.9 |
| OSU-03012 + PF-04217903 | 132 | 88.7 | 91.2 | 63.7 | 90.2 |
| vatalanib + XAV939 | 51.7 | 57.0 | 84.0 | 84.4 | 82.3 |
| sorafenib + enzastaurin | 91.1 | 99.4 | 76.2 | 86.5 | 96.3 |

Once more, the final 2:

* vatalanib + XAV939 : COLO 800: 51.7; COLO 792: 57.0; WM451Lu: 84.0; COLO 829: 84.4; C32: 82.3
* sorafenib + enzastaurin : COLO 800: 91.1; COLO 792: 99.4; WM451Lu: 76.2; COLO 829: 86.5; C32: 96.3